# The supplement of paper PMC12819154, “High-throughput peptide-centric local stability assay extends protein–ligand identification to membrane proteins, tissues and bacteria” (Nature Structural & Molecular Biology, 2025)
# By UniProt entry, the sequences of proteins in these tests, tags left out. Where a name states a change or a piece, a line headed by the entry shows the natural chain unless it says otherwise.
# UniProt Q8VCN5, whole entry: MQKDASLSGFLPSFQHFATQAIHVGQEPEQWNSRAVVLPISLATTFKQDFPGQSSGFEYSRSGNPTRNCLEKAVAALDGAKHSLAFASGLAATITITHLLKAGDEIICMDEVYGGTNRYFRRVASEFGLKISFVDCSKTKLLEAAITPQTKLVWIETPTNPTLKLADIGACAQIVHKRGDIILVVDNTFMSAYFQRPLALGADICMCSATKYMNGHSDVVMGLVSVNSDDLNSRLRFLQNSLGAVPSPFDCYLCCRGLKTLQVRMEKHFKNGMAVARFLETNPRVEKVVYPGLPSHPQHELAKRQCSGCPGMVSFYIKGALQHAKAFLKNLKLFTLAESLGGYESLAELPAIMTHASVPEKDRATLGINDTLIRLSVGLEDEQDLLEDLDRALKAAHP
# UniProt Q8VE47: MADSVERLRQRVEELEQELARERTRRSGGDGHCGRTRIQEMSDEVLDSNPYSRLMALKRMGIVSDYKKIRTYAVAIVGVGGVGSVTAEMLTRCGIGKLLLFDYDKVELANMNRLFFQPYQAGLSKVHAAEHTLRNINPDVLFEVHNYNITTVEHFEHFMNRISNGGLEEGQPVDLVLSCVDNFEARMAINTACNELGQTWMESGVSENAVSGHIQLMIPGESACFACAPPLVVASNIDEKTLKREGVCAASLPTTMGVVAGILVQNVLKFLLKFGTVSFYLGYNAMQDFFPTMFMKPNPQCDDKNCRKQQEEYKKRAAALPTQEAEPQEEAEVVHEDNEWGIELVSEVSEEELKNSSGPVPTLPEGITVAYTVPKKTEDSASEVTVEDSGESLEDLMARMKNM
# UniProt Q8R3D1: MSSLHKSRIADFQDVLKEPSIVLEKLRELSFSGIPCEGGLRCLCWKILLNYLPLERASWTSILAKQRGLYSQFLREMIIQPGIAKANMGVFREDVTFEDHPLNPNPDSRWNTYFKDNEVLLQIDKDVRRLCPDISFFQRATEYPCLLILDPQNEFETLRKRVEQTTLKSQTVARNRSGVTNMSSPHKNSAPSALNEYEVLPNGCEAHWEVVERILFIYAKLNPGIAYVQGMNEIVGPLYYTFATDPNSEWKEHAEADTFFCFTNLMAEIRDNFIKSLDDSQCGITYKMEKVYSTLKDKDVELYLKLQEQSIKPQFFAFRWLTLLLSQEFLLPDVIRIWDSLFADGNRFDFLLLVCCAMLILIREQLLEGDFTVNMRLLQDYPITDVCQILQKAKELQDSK
# UniProt Q8VC19: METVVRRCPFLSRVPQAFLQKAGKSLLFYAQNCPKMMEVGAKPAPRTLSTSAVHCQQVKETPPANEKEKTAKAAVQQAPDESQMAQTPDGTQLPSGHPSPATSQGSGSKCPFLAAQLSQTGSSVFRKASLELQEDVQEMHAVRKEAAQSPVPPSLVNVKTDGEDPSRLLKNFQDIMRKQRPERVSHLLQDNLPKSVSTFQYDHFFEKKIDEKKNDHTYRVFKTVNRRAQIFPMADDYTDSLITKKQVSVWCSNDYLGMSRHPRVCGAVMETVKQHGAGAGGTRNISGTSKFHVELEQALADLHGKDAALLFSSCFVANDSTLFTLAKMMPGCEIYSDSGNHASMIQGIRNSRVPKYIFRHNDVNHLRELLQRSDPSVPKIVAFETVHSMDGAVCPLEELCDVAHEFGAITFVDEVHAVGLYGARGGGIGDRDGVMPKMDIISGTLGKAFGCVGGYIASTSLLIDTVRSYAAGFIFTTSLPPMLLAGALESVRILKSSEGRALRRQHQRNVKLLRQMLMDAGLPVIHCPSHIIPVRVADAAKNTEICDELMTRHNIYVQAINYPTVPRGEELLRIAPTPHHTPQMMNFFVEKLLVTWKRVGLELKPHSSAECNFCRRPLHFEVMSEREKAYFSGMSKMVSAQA
# UniProt Q8VBV7: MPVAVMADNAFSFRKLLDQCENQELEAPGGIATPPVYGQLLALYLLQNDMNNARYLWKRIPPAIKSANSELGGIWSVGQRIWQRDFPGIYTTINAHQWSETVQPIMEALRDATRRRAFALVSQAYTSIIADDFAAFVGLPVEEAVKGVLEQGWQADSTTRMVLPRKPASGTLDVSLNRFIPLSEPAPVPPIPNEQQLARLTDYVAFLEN
# UniProt Q8R5A0: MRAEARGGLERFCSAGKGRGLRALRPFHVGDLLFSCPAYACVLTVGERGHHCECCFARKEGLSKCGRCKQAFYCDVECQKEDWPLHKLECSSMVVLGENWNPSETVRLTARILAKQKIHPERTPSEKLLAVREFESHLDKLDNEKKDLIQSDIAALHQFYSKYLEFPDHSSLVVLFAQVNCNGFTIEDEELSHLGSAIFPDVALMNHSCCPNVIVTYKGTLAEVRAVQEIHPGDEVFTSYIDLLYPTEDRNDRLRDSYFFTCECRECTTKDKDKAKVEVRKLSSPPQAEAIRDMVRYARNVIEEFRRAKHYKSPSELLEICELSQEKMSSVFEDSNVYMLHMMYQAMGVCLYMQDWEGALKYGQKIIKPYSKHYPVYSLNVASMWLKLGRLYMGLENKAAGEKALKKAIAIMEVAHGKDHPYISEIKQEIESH
# UniProt Q8VC03: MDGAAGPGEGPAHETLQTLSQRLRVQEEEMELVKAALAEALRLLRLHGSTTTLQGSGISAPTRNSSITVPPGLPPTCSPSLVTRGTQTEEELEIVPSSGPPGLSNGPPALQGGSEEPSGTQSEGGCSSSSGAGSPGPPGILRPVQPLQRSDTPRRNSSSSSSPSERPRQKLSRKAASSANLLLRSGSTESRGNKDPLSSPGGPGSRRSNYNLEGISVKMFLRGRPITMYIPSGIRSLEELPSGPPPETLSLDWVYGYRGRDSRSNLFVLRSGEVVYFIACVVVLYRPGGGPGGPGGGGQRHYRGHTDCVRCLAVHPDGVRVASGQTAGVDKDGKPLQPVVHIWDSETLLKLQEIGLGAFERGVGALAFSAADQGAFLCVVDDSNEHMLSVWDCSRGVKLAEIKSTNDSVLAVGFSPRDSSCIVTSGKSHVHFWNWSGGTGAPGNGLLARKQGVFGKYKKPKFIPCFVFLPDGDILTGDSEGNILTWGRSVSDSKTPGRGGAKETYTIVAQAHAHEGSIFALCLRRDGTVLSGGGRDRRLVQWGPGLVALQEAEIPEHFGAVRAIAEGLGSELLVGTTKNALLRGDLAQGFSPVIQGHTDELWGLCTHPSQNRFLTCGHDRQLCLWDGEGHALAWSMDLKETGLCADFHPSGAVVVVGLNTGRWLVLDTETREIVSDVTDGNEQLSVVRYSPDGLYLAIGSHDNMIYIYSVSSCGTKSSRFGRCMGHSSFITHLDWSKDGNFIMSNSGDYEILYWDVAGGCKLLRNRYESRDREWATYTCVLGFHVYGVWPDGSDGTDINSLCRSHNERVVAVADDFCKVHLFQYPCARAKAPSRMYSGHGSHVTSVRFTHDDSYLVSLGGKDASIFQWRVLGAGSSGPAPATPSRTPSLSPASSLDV
# UniProt Q8R3G1: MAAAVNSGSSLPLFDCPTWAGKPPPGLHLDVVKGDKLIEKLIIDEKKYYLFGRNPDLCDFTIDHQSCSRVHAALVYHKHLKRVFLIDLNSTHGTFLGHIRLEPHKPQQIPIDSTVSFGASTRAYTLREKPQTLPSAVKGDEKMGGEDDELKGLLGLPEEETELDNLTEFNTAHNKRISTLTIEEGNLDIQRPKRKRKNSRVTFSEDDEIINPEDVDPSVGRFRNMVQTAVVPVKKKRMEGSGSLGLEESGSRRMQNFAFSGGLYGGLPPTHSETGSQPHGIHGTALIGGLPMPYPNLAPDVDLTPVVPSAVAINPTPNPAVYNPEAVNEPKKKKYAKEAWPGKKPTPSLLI
# UniProt Q8VCX5: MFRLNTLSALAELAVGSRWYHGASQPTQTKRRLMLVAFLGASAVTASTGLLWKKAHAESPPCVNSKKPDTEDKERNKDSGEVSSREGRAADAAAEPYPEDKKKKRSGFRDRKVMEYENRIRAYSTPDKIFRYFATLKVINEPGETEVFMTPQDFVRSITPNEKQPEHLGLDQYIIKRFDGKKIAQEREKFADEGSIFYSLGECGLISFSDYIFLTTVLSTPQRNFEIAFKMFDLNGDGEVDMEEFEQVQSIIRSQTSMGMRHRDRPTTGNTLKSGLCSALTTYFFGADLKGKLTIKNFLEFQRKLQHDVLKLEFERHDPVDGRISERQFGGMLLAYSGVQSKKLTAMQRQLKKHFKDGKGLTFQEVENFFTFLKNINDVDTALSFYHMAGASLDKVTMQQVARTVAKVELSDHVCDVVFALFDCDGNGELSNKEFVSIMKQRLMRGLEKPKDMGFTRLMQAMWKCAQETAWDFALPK
# UniProt Q8VDJ3: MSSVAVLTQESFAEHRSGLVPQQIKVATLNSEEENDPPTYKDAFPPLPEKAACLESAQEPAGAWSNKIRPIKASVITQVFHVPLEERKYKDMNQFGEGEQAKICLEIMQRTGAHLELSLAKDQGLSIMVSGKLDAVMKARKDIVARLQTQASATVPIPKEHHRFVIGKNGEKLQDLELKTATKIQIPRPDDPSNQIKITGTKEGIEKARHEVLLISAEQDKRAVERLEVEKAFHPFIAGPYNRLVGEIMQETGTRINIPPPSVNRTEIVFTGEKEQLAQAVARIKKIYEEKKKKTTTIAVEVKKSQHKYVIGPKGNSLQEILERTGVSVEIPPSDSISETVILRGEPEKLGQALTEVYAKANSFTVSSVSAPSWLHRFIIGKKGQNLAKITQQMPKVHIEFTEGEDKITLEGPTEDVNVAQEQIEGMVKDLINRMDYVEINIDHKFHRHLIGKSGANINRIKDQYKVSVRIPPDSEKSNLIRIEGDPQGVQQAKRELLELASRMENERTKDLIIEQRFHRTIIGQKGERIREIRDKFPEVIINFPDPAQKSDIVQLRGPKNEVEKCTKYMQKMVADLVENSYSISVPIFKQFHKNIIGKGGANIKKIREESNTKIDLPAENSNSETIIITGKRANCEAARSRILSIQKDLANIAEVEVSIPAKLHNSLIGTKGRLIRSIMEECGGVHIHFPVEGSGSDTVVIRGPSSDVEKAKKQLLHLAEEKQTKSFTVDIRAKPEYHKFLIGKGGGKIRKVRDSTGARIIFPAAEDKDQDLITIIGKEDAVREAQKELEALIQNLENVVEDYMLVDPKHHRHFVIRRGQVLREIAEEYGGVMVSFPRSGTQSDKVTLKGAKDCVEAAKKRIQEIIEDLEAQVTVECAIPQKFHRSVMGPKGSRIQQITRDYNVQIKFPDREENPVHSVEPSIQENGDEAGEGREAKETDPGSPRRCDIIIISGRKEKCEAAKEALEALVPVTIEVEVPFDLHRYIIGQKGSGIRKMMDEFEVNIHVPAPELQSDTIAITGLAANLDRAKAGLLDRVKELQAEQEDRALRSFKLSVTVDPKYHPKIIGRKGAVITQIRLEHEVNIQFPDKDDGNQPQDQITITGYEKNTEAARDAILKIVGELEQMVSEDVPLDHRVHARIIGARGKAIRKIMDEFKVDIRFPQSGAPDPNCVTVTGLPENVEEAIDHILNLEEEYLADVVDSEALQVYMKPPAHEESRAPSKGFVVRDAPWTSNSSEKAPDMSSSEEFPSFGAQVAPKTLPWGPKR
# The list shows a part of the results. Most values lie at the level of the controls, where differences are scatter.
# Compound: CN[C@@H]1C[C@H]2O[C@@](C)([C@@H]1OC)n1c3ccccc3c3c4c(c5c6ccccc6n2c5c31)C(=O)NC4 [staurosporine]
# Assay: log2 fold change of tryptic peptide abundance, ligand vs vehicle (limited proteolysis) (log2 ratio); higher = more trypsin-susceptible (destabilized)
# Conditions: ligand concentration: 20 uM; sample: mouse liver crude lysate; replicate design: treated separately
row,Target,log2 fold change
1,"UniProt Q8VCN5 (peptide sequence: LLEAAITPQTK, peptide start residue: 141)",-0.14
2,"UniProt Q8VE47 (peptide sequence: MGIVSDYK, peptide start residue: 60)",-0.166
3,"UniProt Q8R3D1 (peptide sequence: RVEQTTLK, peptide start residue: 161)",-0.2
4,"UniProt Q8VC19 (peptide sequence: ASLELQEDVQEMHAVRK, peptide start residue: 128)",-0.143
5,"UniProt Q8VBV7 (peptide sequence: KPASGTLDVSLNR, peptide start residue: 166)",-0.089
6,"UniProt Q8R5A0 (peptide sequence: LSSPPQAEAIR, peptide start residue: 282)",0.0514
7,"UniProt Q8VEG6 (peptide sequence: EKYDPPDPR, peptide start residue: 9)",0.258
8,"UniProt Q8VC03 (peptide sequence: VHLFQYPCAR, peptide start residue: 819)",0.812
9,"UniProt Q8R3G1 (peptide sequence: VFLIDLNSTHGTFLGHIR, peptide start residue: 83)",-0.398
10,"UniProt Q8VCX5 (peptide sequence: KVMEYENR, peptide start residue: 112)",-0.201
11,"UniProt Q8VDJ3 (peptide sequence: KGAVITQIR, peptide start residue: 1071)",0.116

# A different layout for part of the listing above:
row	Target	log2 fold change
2	UniProt Q8VE47 (peptide sequence: MGIVSDYK, peptide start residue: 60)	-0.166
3	UniProt Q8R3D1 (peptide sequence: RVEQTTLK, peptide start residue: 161)	-0.2
